According to US20240076387A1:
No constants are given. Whether binding was seen depends on the method and setting. Some entries that bind do so weakly or less than the wild type.

Chains of the proteins cited; added tags and fusions are not shown. Lines headed by an entry give the natural chain unless they say otherwise; changes in a name come on top.
UniProt P17948: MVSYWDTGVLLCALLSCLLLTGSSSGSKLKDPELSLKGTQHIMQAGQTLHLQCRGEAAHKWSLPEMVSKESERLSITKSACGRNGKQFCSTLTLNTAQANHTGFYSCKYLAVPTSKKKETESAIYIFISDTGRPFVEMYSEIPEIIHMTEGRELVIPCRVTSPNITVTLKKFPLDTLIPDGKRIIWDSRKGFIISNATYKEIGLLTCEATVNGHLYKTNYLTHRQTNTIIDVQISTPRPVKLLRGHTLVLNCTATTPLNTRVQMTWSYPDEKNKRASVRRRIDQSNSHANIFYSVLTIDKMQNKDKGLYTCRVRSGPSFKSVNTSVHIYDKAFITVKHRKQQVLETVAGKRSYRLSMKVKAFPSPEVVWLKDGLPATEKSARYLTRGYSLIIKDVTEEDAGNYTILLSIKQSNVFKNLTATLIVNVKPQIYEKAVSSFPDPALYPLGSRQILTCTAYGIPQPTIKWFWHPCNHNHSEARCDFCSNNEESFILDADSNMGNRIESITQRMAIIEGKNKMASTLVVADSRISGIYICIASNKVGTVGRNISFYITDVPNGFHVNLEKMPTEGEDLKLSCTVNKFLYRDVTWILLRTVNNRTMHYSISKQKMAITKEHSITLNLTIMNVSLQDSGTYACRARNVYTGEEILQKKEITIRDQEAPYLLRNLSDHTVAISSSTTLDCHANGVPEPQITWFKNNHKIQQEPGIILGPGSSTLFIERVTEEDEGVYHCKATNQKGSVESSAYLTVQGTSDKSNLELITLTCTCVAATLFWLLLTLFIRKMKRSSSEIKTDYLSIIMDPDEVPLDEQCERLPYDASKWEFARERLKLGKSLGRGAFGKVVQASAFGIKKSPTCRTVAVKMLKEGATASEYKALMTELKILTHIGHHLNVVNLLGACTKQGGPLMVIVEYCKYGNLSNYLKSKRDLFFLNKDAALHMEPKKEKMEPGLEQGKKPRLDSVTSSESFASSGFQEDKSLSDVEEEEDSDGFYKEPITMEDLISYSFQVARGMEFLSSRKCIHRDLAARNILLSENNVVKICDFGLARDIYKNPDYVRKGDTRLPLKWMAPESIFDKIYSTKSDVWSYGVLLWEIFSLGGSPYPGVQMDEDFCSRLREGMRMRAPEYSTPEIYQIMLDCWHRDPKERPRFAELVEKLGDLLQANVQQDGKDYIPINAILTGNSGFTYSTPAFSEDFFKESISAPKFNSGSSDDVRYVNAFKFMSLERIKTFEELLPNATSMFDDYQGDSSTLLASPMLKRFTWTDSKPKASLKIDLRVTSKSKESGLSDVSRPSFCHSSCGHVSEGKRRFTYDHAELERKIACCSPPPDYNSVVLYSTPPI

Target: recombinant human soluble Flt-1 (human) (UniProt P17948)
Assay: size exclusion chromatography of the mixture

B1: 21B3 (antibody, V domains shown)
VH: ELQLVESGGGLVQPGGSLRLSCAASGFTFRDYSMSWVRQAPGKGLEWVSAISWNGDSTYYAESMKGRFTISRDNAKNTLYLQMNSLKSEDTAVYYCAKSWATPIESLYYYGMDYWGKGTLVTVSS
VL: SYELTQSPSVSVALRQTAKITCGGNNIGSQTAQWYQQKPGQAPVLVIYANNRRPSGIPERFSGSKSGNTATLTISGAQAEDEADYYCQVWDGSTQAIVFGGGTHLTVL
- binding: binds
